Data as given in PMC8217545.
Results are given in words; binding and its absence hold for the method and conditions named. In cells and extracts the contact can be indirect. Some binding calls cover weakened binding; strength is not graded here.

Protein sequences, listed by entry. Tags and fused reporters are not part of them.
UniProt O70133: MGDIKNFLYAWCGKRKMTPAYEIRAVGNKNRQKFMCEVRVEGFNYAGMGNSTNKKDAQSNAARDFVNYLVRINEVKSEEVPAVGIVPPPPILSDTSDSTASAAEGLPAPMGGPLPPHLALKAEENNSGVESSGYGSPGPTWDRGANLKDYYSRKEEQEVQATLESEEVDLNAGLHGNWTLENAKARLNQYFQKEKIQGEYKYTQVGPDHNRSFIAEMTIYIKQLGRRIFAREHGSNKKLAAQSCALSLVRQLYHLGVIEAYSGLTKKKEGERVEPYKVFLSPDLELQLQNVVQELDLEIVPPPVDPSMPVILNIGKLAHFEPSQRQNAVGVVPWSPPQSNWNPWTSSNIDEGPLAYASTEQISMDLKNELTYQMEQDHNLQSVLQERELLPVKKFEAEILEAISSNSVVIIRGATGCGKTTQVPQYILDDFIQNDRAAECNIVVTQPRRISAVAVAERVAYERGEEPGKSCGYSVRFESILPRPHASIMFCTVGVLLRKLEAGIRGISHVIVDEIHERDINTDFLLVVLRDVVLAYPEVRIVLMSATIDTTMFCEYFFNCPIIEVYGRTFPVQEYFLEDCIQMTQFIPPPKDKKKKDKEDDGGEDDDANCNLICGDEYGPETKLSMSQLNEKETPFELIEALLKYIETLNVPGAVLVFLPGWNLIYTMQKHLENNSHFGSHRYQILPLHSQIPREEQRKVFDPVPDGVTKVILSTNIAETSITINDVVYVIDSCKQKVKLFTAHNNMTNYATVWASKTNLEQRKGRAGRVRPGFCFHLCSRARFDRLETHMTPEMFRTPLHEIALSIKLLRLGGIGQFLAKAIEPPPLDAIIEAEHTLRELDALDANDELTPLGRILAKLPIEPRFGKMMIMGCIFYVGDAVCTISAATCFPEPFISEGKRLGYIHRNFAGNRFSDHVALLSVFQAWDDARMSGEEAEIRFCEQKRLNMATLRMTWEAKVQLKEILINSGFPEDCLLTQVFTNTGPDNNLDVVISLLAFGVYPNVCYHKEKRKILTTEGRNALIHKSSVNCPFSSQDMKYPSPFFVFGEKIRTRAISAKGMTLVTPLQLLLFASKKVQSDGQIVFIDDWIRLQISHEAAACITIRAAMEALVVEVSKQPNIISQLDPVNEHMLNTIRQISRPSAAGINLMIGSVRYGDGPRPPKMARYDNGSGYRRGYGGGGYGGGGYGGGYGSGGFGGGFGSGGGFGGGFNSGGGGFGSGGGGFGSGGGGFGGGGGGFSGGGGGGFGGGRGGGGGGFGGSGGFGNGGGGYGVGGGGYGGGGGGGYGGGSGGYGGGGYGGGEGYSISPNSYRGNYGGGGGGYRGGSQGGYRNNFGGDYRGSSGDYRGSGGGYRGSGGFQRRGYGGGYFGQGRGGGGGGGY

Target: DHX9 helicase (mouse (endogenous in ESC)) (UniProt O70133)
Test: co-IP; anti-DHX9 antibody on ESC lysates in NETN buffer with protease inhibitors, 4 °C overnight, Protein A or G magnetic beads; western blot developed with anti-HA antibody

“HA-tagged DIDO3 (whole DIDO3) (from UniProt Q8C9B9-1 1-2256)” was tested, and the binding was “binds”.
